The target of the assay is T1, Zinc-finger E-box-binding homeobox 1 (ZEB1) (human (endogenous in OPM2)) (UniProt P37275).
T1 sequence: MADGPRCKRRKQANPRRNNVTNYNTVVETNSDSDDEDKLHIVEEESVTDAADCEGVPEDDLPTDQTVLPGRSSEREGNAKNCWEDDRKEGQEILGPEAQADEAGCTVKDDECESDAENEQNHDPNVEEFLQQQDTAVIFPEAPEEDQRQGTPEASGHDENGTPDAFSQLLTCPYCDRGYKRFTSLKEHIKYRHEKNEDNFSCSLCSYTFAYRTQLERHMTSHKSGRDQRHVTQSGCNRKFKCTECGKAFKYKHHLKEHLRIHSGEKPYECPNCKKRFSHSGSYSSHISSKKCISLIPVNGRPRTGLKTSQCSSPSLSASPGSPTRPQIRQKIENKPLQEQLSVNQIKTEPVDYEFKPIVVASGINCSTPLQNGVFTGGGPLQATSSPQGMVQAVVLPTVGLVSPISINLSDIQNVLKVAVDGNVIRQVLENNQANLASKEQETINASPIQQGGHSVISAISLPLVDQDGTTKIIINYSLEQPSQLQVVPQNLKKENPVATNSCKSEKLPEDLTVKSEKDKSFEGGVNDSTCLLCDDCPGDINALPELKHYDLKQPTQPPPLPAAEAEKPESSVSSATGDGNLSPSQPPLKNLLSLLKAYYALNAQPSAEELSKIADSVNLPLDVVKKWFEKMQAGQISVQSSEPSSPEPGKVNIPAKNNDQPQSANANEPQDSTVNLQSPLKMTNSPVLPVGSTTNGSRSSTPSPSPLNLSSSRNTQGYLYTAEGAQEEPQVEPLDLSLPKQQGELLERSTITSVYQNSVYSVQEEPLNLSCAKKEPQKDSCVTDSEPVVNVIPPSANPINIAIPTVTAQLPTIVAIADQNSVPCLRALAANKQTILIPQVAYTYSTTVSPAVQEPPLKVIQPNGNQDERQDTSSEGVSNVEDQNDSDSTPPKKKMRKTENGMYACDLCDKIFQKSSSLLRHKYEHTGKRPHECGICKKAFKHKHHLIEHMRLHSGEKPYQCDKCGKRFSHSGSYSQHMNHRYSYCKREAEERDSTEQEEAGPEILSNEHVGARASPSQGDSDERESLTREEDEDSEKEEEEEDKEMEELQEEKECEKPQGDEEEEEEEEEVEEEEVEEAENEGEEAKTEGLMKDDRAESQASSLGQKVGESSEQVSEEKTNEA
Nature of the assay: co-IP; OPM2 lysate (50 mM TRIS-HCl pH 7.4, 150 mM NaCl, 20 mM EDTA, 0.5% NP-40, 1 mM DTT) incubated with 1 ug non-relevant, anti-USP39 or anti-ZEB1 antibody and protein G Sepharose at 4°C overnight; beads washed five times; immunoblot with anti-USP39 or anti-ZEB1. In general terms: Immunoblotting shows a protein as a band on a membrane.

Results are given in words; binding and its absence hold for the method and conditions named. Binding seen in cells or lysates may run through a third protein. Some results given as binding are weak or reduced against the parent protein; the word gives no strength.

B1: Ubiquitin-specific peptidase 39 (USP39) (enzyme, UniProt Q53GS9-1 1-565)
chain: MSGRSKRESRGSTRGKRESESRGSSGRVKRERDREREPEAASSRGSPVRVKREFEPASAREAPASVVPFVRVKREREVDEDSEPEREVRAKNGRVDSEDRRSRHCPYLDTINRSVLDFDFEKLCSISLSHINAYACLVCGKYFQGRGLKSHAYIHSVQFSHHVFLNLHTLKFYCLPDNYEIIDSSLEDITYVLKPTFTKQQIANLDKQAKLSRAYDGTTYLPGIVGLNNIKANDYANAVLQALSNVPPLRNYFLEEDNYKNIKRPPGDIMFLLVQRFGELMRKLWNPRNFKAHVSPHEMLQAVVLCSKKTFQITKQGDGVDFLSWFLNALHSALGGTKKKKKTIVTDVFQGSMRIFTKKLPHPDLPAEEKEQLLHNDEYQETMVESTFMYLTLDLPTAPLYKDEKEQLIIPQVPLFNILAKFNGITEKEYKTYKENFLKRFQLTKLPPYLIFCIKRFTKNNFFVEKNPTIVNFPITNVDLREYLSEEVQAVHKNTTYDLIANIVHDGKPSEGSYRIHVLHHGTGKWYELQDLQVTDILPQMITLSEAYIQIWKRRDNDETNQQGA
On to B1, for which the binding entry is “binds”.

The record behind these values is paper PMC11686864.
